Assay [1] addresses CD147 (human (endogenous in primary EEC)) (UniProt P35613). Nature of the assay: co-IP; confluent primary EEC monolayers lysed in Tris-buffered saline with 1% Brij 96, 1 mM CaCl2, 1 mM MgCl2 and protease inhibitors; 5 µg antibody coupled to protein-G-Sepharose; six washes with lysis buffer; non-reducing SDS-PAGE and Western blot; non-immune Ig as negative control.
In assay [2] the target is CD147 (human (endogenous in primary EEC)), P35613. The assay is described as above. As to conditions: remark: other sources report otherwise.

Sequences of proteins named here, by UniProt entry; tags and fusion partners are left off. A change or cut given only in a name is not applied to a line headed by its entry.
UniProt P35613: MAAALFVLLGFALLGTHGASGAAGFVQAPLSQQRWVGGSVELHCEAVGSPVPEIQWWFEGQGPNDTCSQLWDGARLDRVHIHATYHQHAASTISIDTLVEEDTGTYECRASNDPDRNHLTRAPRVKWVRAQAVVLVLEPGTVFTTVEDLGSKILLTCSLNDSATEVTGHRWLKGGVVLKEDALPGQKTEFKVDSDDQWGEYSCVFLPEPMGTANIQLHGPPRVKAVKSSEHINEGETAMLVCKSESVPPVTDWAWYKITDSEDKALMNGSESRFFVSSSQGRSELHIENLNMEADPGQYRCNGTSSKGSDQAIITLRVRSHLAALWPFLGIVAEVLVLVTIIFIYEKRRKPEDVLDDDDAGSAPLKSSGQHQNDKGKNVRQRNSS

These are yes or no findings as the source states them, for the method shown. Binding seen in cells or lysates may run through a third protein. For some assays here: Binding calls can cover weak binding; strength is not graded here.

“CD98 heavy chain (from UniProt P08195 1-529)”: in assay [1], the binding entry is on record as “binds weakly”.

B1: tetraspanin CD9, P21926 1-228 (protein)
chain: MPVKGGTKCIKYLLFGFNFIFWLAGIAVLAIGLWLRFDSQTKSIFEQETNNNNSSFYTGVYILIGAGALMMLVGFLGCCGAVQESQCMLGLFFGFLLVIFAIEIAAAIWGYSHKDEVIKEVQEFYKDTYNKLKTKDEPQRETLKAIHYALNCCGLAGGVEQFISDICPKKDVLETFTVKSCPDAIKEVFDNKFHIIGAVGIGIAVVMIFGMIFSMILCCAIRRNREMV
For B1, the binding entry in assay [2] is reported as “no binding”.

(Values after publication PMC2955532.)
